# Measured values taken from US6174875A, “Benzoquinoid ansamycins for the treatment of cardiac arrest and stroke” (priority 1999, dated 2001).
# At least one compound was matched to its structure with a doubt left.
# Tests used:
# HT22 cells [1] = experiment: Glutamate-induced cytotoxicity in HT22 cells by phase contrast/light microscopy and trypan blue staining; type: cell-based, mouse; conditions: 24 hours
# Experimental: HT22 cells were seeded on 60 mm tissue culture dishes at 300,000 cells per dish and grown overnight. […] In order to provide a more accurate assessment of glutamate-induced oxidative toxicity, the ability of HT22 cells to metabolize 3-(4,5-[…]-2-yl)-2,5-diphenyl tetrazolium bromide (MTT) was assayed. The reduction of this dye by viable cells can easily be detected spectrophotometrically as described by Mosman (1983) J. Immunol. Methods 65:55 with reduced HT22 cell viability directly correlated with decreased metabolism of MTT (Shubert et al. (1992) Proc. Natl. Acad. Sci. USA 89:8264). HT22 cells were seeded on 96-well plates at 5,000 cells per well and grown for 12 hours. Cells were then treated with 2 mM, 5 mM or 10 mM concentrations of glutamate. […] After a total incubation period of 20 hours, cell viability was measured using an MTT assay as described by Li et al. (1997) Neuron 19:453. Briefly, 10 μl of MTT solution (5 mg/ml) was added to each well and cells incubated for an additional 4 hours. 100 μl of solubilization solution (50% dimethylformamide and 20% SDS, pH 4.8) was added and left on the cells 5 overnight, after which light absorption at 570 nm was measured. Values (% Viability) represent the average of quadruplicate (FIG. 1) or triplicate (FIG. 2) determinations±S.D. Similar results were obtained in a replicate experiment. […]
# [2] = test system: glutathione levels in HT22 cells; experiment: Cellular glutathione (GSH) levels in HT22 cells (monochlorobimane fluorescence); type: cell-based, mouse; conditions: 5 mM glutamate, 2-8 hours (FIG. 3)
# Experimental: Cellular glutathione (GSH) levels were measured in HT22 cells as described previously by Kane (1993) Science 262:1274. Briefly, HT22 cells were seeded onto 96-well plates at 20,000 cells per well and grown overnight. […] Monochlorobimane was added to 40 μM and following an additional 30 minutes of incubation, fluorescence at 460 nm in response to excitation at 395 mn was measured using a Perkin Elmer fluorescence plate reader. Values represent the average of triplicate experiments±S.D.
# HT22 cells [3] = conditions: cited from earlier work
compound,measurement,setting,value
N[C@@H](CCC(=O)O)C(=O)O [glutamate],cell death after glutamate treatment,HT22 cells [1],extensive cell death
same,glutathione depletion by glutamate,[2],protracted time course of glutathione depletion
same,cysteine transport in glutamate-treated HT22 cells,HT22 cells [3],inhibition of cysteine transport
same,intracellular glutathione levels in glutamate-treated HT22 cells,HT22 cells [3],depletion of intracellular glutathione levels
